The other results are listed elsewhere or left out.
Tested on: T1, CTL2-GFP (C. trachomatis L2/434/Bu, GFP-expressing)
T1 construct: L2/434/Bu, GFP-expressing
Design: species or system HeLa; Intracellular C. trachomatis growth in HeLa cells, bulk GFP fluorescence relative to DMSO
Conditions: bulk GFP, single well; 28.5 h, 10 µM; inhibitor

| SMILES | % of control remaining |
| --- | --- |
| O=C(O)/C=C/C(=O)NNC(=O)c1ccccc1O [CBK261789] | 122.952% |
| OCCC1CCCCN1c1cncc(C2CCOC2)n1 (stereo not drawn) [CBK066127] | 101.318% |
| O=S(=O)(c1csc2ccccc12)N1CCOCC1 [CBK062401] | 118.858% |
| Cc1cc(C)c2sc(NC(=O)c3ccccc3)nc2c1 [CBK287614] | 127.058% |
| Cn1cncc1CN(CCCn1ccnc1)Cc1ccccc1F [CBK282960] | 125.117% |
| N=C(N)Nc1nc(-c2ccccc2)c2cc(F)ccc2n1 [CBK267350] | 42.6236% |
| O=C(Nc1ccc(O)cc1C(=O)O)c1ccc2c(c1)C(=O)N(Cc1ccco1)C2=O [CBK267418] | 91.7412% |
| CC(=O)OCC(=O)N1CCC(N(C)Cc2ccc(-c3ccc(S(C)(=O)=O)cc3)nc2)CC1 [CBK165268] | 98.7723% |
| O=C(Cc1c[nH]c2ccccc12)N1CCC2(CCCN(Cc3c(F)cccc3F)C2)C1 (stereo not drawn) [CBK132031] | 124.753% |
| O=C(OCc1ccccc1)N1CCN(C(=O)c2cc3cc(Br)ccc3[nH]2)CC1 [CBK154991] | 88.0275% |
| O=C(NCc1cccc2ccccc12)N1CCCCC1CO (stereo not drawn) [CBK156167] | 109.197% |
| COc1cc(C)c(Cl)cc1S(=O)(=O)NCCCN1CCOCC1 [CBK269044] | 119.239% |
| Cc1nn(-c2ccc(F)cc2)c2[nH]c(=O)c(CNC(C)(C)C)cc12 [CBK283120] | 105.645% |
| COc1ccc(-c2nnc3c4ccccc4c(C)nn23)cc1S(=O)(=O)NC(C)c1ccccc1 (stereo not drawn) [CBK266605] | 163.996% |
| Cc1cccc(C)c1NC(=O)CC(CN1CCN(Cc2c(C)noc2C)CC1)C(=O)O (stereo not drawn) [CBK286715] | 120.411% |
| O=C(Nc1ccc(-c2nc3ccc(-c4nc5ccc(NC(=O)c6cccc7ccccc67)cc5[nH]4)cc3[nH]2)cc1)c1cccc2ccccc12 [CBK261161] | 109.821% |
| Cc1nn(C)cc1S(=O)(=O)N1CCn2cccc2C1C(C)C (stereo not drawn) [CBK282787] | 104.586% |
| COc1cc(/C=C2\SC(=S)N(c3cccc(C(=O)O)c3)C2=O)cc([N+](=O)[O-])c1O [CBK265281] | 108.414% |
| Cc1cccc(C(=O)Nc2nc3ccc(S(C)(=O)=O)cc3s2)c1 [CBK287323] | 128.472% |
| Cc1cccc(S(=O)(=O)N2CCN(C)CC2)c1 [CBK097893] | 101.28% |
| COc1ccccc1CN1CC[C@H]2[C@@H](C1)[C@H](c1ccsc1)CN2C(=O)c1ccccc1 [CBK285617] | 102.822% |

Nothing new here: an excerpt of the list.

| SMILES | % of control remaining |
| --- | --- |
| COc1cc(/C=C2\SC(=S)N(c3cccc(C(=O)O)c3)C2=O)cc([N+](=O)[O-])c1O [CBK265281] | 108.414% |
| Cc1cccc(C(=O)Nc2nc3ccc(S(C)(=O)=O)cc3s2)c1 [CBK287323] | 128.472% |

From publication PMC12040169 (PLOS Biology, 2025)
